In US20090192100, “NOVEL USE OF SPIEGELMERS” (published 2009) one finds binding result and IC50 data, which are given here for seven sequences.

The exact form of at least one protein or probe is not confirmed. For some of these results: A negative result means that nothing was seen under these conditions. Protein sequences can lack the tags named with them.

Data set [1] deals with T1, HMGA1b-His6 S2G (Homo sapiens).
T1 sequence: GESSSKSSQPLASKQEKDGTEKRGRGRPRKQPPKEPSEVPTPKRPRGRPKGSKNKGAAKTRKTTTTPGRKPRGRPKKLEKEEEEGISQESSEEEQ
Put plainly: binding assay. The settings on record: L-RNA, purified recombinant protein, label: 5'-biotin, synthetic backbone, mirror-image nucleic acid.

The test system is the same in data set [2]. Put plainly: competition with a labelled probe. The settings on record: L-RNA, purified recombinant protein, synthetic backbone, mirror-image nucleic acid; for binding result: competes in the low nanomolar range with dsDNA AT hook.

For “CCGACUUUGGUGGGUGUACCUUGACGGGGUAUAGGUGGGUGCAUAGUCGG [5'-biotin-NOX-A inverse spiegelmer]”, the binding result in data set [1] (Western blot: inverse spiegelmer did not recognise HMGA1b, variant of 5'-biotin-NOX-A spiegelmer) was “no binding”.

Usually IC50 stands for the concentration at which inhibition is half-maximal. Take “CCGACUUUGGUGGGUGUACCUUGACGGGGUAUAGGUGGGUGCAUAGUCGG [inverse NOX-A control spiegelmer]”: the IC50 in data set [2] (no effect up to 0.5 uM, non-specific interaction only above 1 uM, variant of NOX-A spiegelmer) is > 500 nM.

On to “GCUGAAUGAGGAUCGCAGGGGCGUGGCUGGGGUGGGCGACCGUUCAGC [NOX-f 48 nt spiegelmer]”, for which the binding result in data set [2] (variant of 132-B3 NOX-f 48 nt aptamer) is “binds”.

Take “GGAUCGCAGGGGCGUGGCUGGGGUGGGCGAUCC [NOX-f 33 nt spiegelmer]”: in data set [2] (variant of NOX-f 48 nt spiegelmer), the binding result is recorded as “binds”.

With “GGCUGAUACGUGGGUGGAUAUGGGGCAGUUCCAUGUGGGUGGUUUCAGCC [5'-biotin-NOX-A spiegelmer]”, the binding result in data set [1] (Western blot: 3 nM biotin-spiegelmer detects 5 ug blotted HMGA1b, 1 mM Ca/Mg, variant of NOX-A spiegelmer) is “binds”.

Consider “GGCUGAUACGUGGGUGGAUAUGGGGCAGUUCCAUGUGGGUGGUUUCAGCC [NOX-A spiegelmer]”, for which the half-inhibitory concentration (IC50) in data set [2] (competition with biotin-dsDNA AT hook, 30 nM protein, 140 mM KCl, 0.8 mM MgCl2, poly(dGdC), RT, variant of 122-A1 NOX-A aptamer) amounted to 15 nM.

For “GGCUGAUACGUGGGUGGAUAUGGGGCAGUUCCAUGUGGGUGGUUUCAGCC [NOX-A-3'PEG spiegelmer]”, the IC50 in data set [2] (3'-PEG 2 kDa, competition with biotin-dsDNA AT hook, RT, variant of NOX-A spiegelmer) came to 15 nM.
